Experimental data as given in patent publication US20220090083A1, “TARGETING EGLN1 IN CANCER” (THE BROAD INSTITUTE, INC., priority 2018, published 2022).
At least one structure is not confirmed: it was looked up by name or label, or the drawing left a doubt.

System: ES2
Experiment: CellTiter-Glo viability assay, ES2
Type: cell-based, human
Settings: ES2, FIG. 11D
Method: CellTiter-Glo (CTG) viability assays were performed per the manufacturer's instructions. Briefly, 5,000-10,000 cells were seeded per well in a 96 well plate then treated with either DMSO or EGLN1 inhibitor in doses indicated. […] Data presented are the average of three technical replicates.

O=C(O)CNC(=O)C1C(=O)N(C2CCCCC2)C(=O)N(C2CCCCC2)C1=O [Daprodustat]
sensitivity of ES2 to EGLN1 inhibitors (viability): showed sensitivity
